According to patent US20240366779A1 (priority 2021, published 2024):

Assay: general procedure: Fmoc solid-phase peptide synthesis; 2-chloro-trityl chloride or rink acid resin; cellulose paper discs for library; L-phenylalanine-2-chlorotrityl ester pol; HATU/DIPEA
Details: conjugation step

## mp-Ala-Ser-Glu-PAB-Auristatin E
  conjugation yield: 42.5% yield
